Hit rate of the full screen: of about 320,000 compounds, about 22,000 (6.9%) were called active. Inconclusive means that the source gave no clear call. Such entries were picked first, then a sample of the others. Calls follow the shape of the dose curve; as a rule, active = well fitted inhibition curve with a large enough effect; inconclusive = small, poorly fitted or top-dose-only effect, or another doubt; inactive = no such curve, though single readings can be large or run the other way. A potency beside an inconclusive call is a rough fit, not a confirmed value.
Assay: Primary qHTS for delayed death inhibitors of the malarial parasite plastid, 96 hour incubation
Details: P. falciparum luciferase reporter growth; series mostly up to 28.7 µM; activity change, negative = inhibition: at the top concentration
Outline: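 Two-generation exposure (96 h) targets delayed-death phenotype. Reporter parasites carrying integrated firefly luciferase, in red cells at 2% hematocrit and 0.05% parasitemia final, kept at 37 C, 5% CO2; luminescence loss indicates inhibition.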
% is scaled to controls: 0 for no effect and ±100 for the full control effect; potency is read from the fitted curve at half-maximal effect.

SMILES | Potency | activity change, negative = inhibition
Cc1cc(C)nc(SCCCNCc2c(F)cccc2Cl)n1 | inconclusive: 11.7 µM [inhibitor, single point] | 
CCC(C)(C)n1nnnc1C(c1ccc(C)cc1)N1CCSCC1 (centres undefined) | inconclusive: 18.5 µM [inhibitor, single point] | 
CC(=O)Oc1ccc2ccccc2c1C(NC(=O)Cc1ccccc1)c1ccc(Cl)cc1 (centres undefined) | active: 2.94 µM | 
C/C(=N\N=C(N)N)c1ccc(C)c(C)c1 | active: 11.7 µM | 
Cn1nc([N+](=O)[O-])nc1Oc1ccccc1F | active: 13.1 µM | 
COCCN1CCN(Cc2nc(C3(c4ccc(C)cc4)CCCC3)no2)CC1 | active: 10.4 µM | 
CCOc1ccc(NC(=O)c2ccc(NC(=O)COC(=O)c3ccc(NC(=O)CC#N)cc3)cc2)cc1 | inconclusive: 1.85 µM [inhibitor, full curve] | 
CC(Sc1nc(-c2ccccc2)cc(C(F)(F)F)n1)C(=O)N1CCCC1 (centres undefined) | inconclusive: 18.5 µM [inhibitor, single point] | 
Cc1cc(C)cc(OCC(=O)Nc2ccncc2)c1 | inconclusive: 13.1 µM [inhibitor, partial curve, poor fit] | 
Cc1ccc(CNC(=O)CCCn2c(=O)[nH]c3ccccc3c2=O)cc1 | inconclusive: 0.465 µM [inhibitor, partial curve, poor fit] | 
CC1Cc2ccccc2N1C(=O)C(C)n1cc(C(F)(F)F)cc(Cl)c1=O (centres undefined) | inconclusive: 18.5 µM [inhibitor, single point] | 
COc1cc(OC)cc(-c2nc3ccccc3c(=O)n2OC(=O)c2ccc(C)c(C)c2)c1 | inconclusive: 4.65 µM [inhibitor, partial curve] | 
COc1ccc(C(=O)NCCC(=O)N2CCC3(CC2)NCCc2[nH]cnc23)cc1 | inconclusive: 18.5 µM [inhibitor, single point] | 
CC(C)O/N=C1\C(=O)N(c2ccccc2)c2ccccc21 | inconclusive: 0.165 µM [inhibitor, full curve] | 
CCOc1ccc(Oc2ccc(C(F)(F)F)cc2NC(=O)C2=COCCO2)cc1 | inconclusive: 18.5 µM [inhibitor, single point] | 
Cc1c(C)c2c(OCC(=O)Nc3cccnc3)cc3c(c2oc1=O)CCC(C)(C)O3 | active: 4.15 µM | 
Cc1cc(N2CCOCC2)nc2ccc(NC(=S)N3CCN(c4ccccc4)CC3)cc12 | inconclusive: 11.7 µM [inhibitor, single point] | 
Cc1ccccc1C(=O)NNc1ccc(-c2csnn2)cc1 |  | inactive: 13.2%
O=C(C1CC(c2ccccc2O)=NO1)N1CCC2(CC1)OCCO2 (centres undefined) |  | inactive: 214%
Cc1ccc(N2CCN(/N=C/c3ccccc3[N+](=O)[O-])CC2)cc1 | inconclusive: 4.15 µM [inhibitor, single point] | 
CCN(CC)C(=O)CSc1nnc2nnc3cc(C)ccc3n12 |  | inactive: -22.8%
CCCn1c(C(O)c2ccc(OC)c(OC)c2)nc2ccccc21 (centres undefined) | inconclusive: 18.5 µM [inhibitor, single point] | 

SMILES | Potency | activity change, negative = inhibition
O=C(NCCN1CCOCC1)c1ccc2c(c1)N(Cc1ccc(F)cc1)C(=O)CS2 |  | inactive: -20.8%
COc1ccc(C2C=C(c3ccccc3)Nc3ncnn32)cc1 (centres undefined) |  | inactive: 19.2%
COc1cccc2c1OC1(C)CC2NC(=O)N1c1cccc(C(=O)N2CCN(c3ccccc3)CC2)c1 (centres undefined) | inconclusive: 6.57 µM [inhibitor, partial curve, poor fit] | 
Cc1cc(C)nc(NC(=O)NC(=O)c2ccccc2)n1 | inconclusive: 20.8 µM [inhibitor, partial curve, poor fit] | 
CC(C)(C)NC[C@@H](O)c1ccc(O)c(CO)n1 |  | inactive: -15.7%
O=S(=O)(NC1C2CC3CC(C2)CC1C3)c1ccccc1 (centres undefined) | inconclusive: 9.28 µM [inhibitor, partial curve] | 
Cc1cc(-c2csc(N)n2)c(C)n1-c1ccc(Cl)c(Cl)c1 |  | inactive: -27.3%
CCc1cc2c(NC(C(=O)O)C(C)C)ncnc2s1 (centres undefined) | inconclusive: 2.94 µM [inhibitor, single point] | 
CC(c1ccco1)N(C(=O)c1ccccc1NS(=O)(=O)c1ccc(Cl)cc1)c1ccccn1 (centres undefined) | inconclusive: 11.7 µM [inhibitor, partial curve] | 
COc1ccc(N2C(=O)/C(=C\c3ccco3)N=C2SCC(=O)NC(C)(C)C)cc1Cl | inconclusive: 8.28 µM [inhibitor, partial curve] | 
CC(Sc1nnc(-c2ccccc2)c(-c2ccccc2)n1)C(=O)Nc1ncc(Cl)cc1Cl (centres undefined) | inconclusive: 18.5 µM [inhibitor, single point] | 
CCc1nnc(NC(=O)c2ccc(Cl)c(S(=O)(=O)N3CCc4ccccc43)c2)s1 | inconclusive: 18.5 µM [inhibitor, single point] | 
CCc1cccc(CC)c1NC(=O)COC(=O)C1(c2ccc(Cl)cc2)CCCC1 | inconclusive: 4.65 µM [inhibitor, partial curve] | 
Cc1ccc(CSCC(=O)N(C)CC(=O)Nc2ccc(C)cc2)cc1 | inconclusive: 11.7 µM [inhibitor, single point] | 
Cc1ccc(C)c(-c2cc(C(=O)NC3CC3)c3ccccc3n2)c1 | inconclusive: 18.5 µM [inhibitor, single point] | 
COC(=O)c1ccc(NC(C)C(=O)OC)c([N+](=O)[O-])c1 (centres undefined) | inconclusive: 16.5 µM [inhibitor, single point] | 
Cc1ccc(-n2nc3c(c2NC(=O)c2ccccc2Br)CS(=O)C3)cc1 (centres undefined) | inconclusive: 18.5 µM [inhibitor, single point] | 
COc1cc(O)c(C(CCN2CCOCC2)c2ccc3c(c2)OCO3)c(OC)c1 (centres undefined) | active: 2.33 µM | 
O=c1[nH]c2ccc(Cl)cc2c(-c2ccccc2)c1N1CCOCC1 |  | inactive: 5.61%
COC(=O)c1c(N)sc(Cc2ccccc2)c1C | inconclusive: 18.5 µM [inhibitor, partial curve, poor fit] | 
Oc1ccc(C(=S)N2CCCCCC2)cc1 | inconclusive: 0.147 µM [inhibitor, full curve] | 
COCCNC(=O)C1CCCN(c2nn3c(=O)cc(C)nc3s2)C1 (centres undefined) | inconclusive: 5.86 µM [inhibitor, partial curve] | 

In a second layout: entries from further up.
SMILES	Potency	activity change, negative = inhibition
Cc1cc(-c2csc(N)n2)c(C)n1-c1ccc(Cl)c(Cl)c1		inactive: -27.3%
CCc1cc2c(NC(C(=O)O)C(C)C)ncnc2s1 (centres undefined)	inconclusive: 2.94 µM [inhibitor, single point]	
